Reference: patent US20260137802A1 (CRISPR THERAPEUTICS, published 2026)
No constants are given. Whether binding was seen depends on the method and setting. Some results given as binding are weak or reduced against the parent protein; the word gives no strength.

By UniProt entry, the sequences of proteins in these tests, tags left out. Where a name states a change or a piece, a line headed by the entry shows the natural chain unless it says otherwise. Residues count along the entry.
UniProt P10721: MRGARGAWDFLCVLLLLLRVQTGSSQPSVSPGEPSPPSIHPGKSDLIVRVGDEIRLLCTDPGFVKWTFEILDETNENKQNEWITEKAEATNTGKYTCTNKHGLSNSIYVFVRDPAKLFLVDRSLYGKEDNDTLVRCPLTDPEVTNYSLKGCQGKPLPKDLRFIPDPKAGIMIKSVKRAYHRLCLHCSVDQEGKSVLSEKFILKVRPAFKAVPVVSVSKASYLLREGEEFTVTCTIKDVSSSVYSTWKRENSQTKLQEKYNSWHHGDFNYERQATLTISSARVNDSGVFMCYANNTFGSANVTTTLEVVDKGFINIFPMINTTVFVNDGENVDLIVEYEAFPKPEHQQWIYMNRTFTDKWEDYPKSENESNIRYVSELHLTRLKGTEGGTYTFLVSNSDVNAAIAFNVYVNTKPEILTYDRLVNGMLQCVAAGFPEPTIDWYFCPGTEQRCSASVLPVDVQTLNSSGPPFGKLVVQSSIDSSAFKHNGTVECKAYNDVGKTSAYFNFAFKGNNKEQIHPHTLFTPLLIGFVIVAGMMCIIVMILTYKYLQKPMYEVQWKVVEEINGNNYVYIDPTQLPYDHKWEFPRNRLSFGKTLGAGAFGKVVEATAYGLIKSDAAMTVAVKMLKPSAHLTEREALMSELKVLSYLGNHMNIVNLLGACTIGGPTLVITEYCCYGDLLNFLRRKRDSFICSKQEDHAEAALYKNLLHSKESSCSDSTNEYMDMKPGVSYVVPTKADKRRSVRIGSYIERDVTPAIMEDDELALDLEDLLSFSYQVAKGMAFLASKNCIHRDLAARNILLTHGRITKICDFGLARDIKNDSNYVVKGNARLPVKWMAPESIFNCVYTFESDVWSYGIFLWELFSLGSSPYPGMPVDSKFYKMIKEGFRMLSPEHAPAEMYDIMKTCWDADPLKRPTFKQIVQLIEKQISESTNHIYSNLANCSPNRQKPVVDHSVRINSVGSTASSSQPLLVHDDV
human CD117 on cells (SKMEL-3 cells, CD34+ HSC): residues 26-976 of P10721

B1: P-0057 (Fc fusion)
chain: QVQLVESGGGLVQAGDSLRLSCAASGRTFSSYAMGWFRQAPGKEREFVASITSSGLVAYYGDSVEARFTISRDNAKNTVYLQMDSLKPEDTAVYYCAARQYVGSGSYYLKKEGGYEYWGPGTQVTVSS
notes: the alignment instead labels 'P35/P57' and 'P32/P56'; also called P57; not shown: Fc fragment
B2: P-0056 (Fc fusion)
chain: QVQLVESGGGLVQAGGSLRLSCAASGGTFSIYPVGWFRQAPGKQREFVAAIGWSASGTYYGDSVEGRFTVSRDNARSTVYLRMSSLKPDDTAVYYCAAASGSNWRLGAIDEYDSWGQGTQVTVSS
notes: the alignment instead labels 'P35/P57' and 'P32/P56'; also called P56; not shown: Fc fragment
B3: P12 (VHH)
VHH: QVQLVESGGGLVQAGGSLRLSCTASGDTFSSYSMGWFRQGPGKEREFVGGIRWSGGTTYYADSVKGRFTISRDNAKNTVYLQMNSLKREDTAVYYCAAVRRRWLIWQEEEYDYWGQGTLVTVSS
B4: P10 (VHH)
VHH: QVQLVESGGGLVQAGGSLRLSCVASGRTFSSYAMGWFRQGPGKEREFAAAILSNGLTTYYADSVKGRFTISRDNAKDTVYLQMNSLKPEDTANYYCAAAFTPEFRDGGIWDDASVDYWGQGTQVTVSS
notes: also called P10/P53; anti-CD117 VHH P10
B5: P27 (VHH)
VHH: EVQLVESGGGLVRAGGSLRLSCAASGRTTFSTYWLGWFRQAPGKNREFVAAISWSAGMAYYQDSKGRFTISRDNTKNTAYLQMNSLQPEDTAVYYCAAGRFHPIRVDTALYWAQGTQVTVSS
notes: also called P27/P60; anti-CD117 VHH P27
B6: P31 (VHH)
VHH: EVQLVESGGGLVRAGGSLRLSCAASGRTFTYDARAWFRQAPGKEREFVAAISWSGGSTYYPNSMKGRFTISRDNAKNTVYLQMNSLKPEDTAVYYCAADESFPAYYSDYALYRYWGQGTLVTVSS
notes: also called P31/P55; anti-CD117 VHH P31
B7: P32 (VHH)
VHH: B1 chain
notes: also called anti-CD117 VHH P32
B8: P35 (VHH)
VHH: B2 chain
notes: also called anti-CD117 VHH P35
B9: P38 (VHH)
VHH: EVQLVESGGGLVQAGGSLRLSCAASGRTSGSYVMGWFRQAPGKEREFVAAISWSAGMTYYADSVKGRFTISRDNAKNTVYLQMNSLKPEDTAVYYCAADQRGVPAYYSDYALYDYWGQGTQVTVSS
notes: also called P38/P72; anti-CD117 VHH P38
B10: P29 (VHH)
VHH: QVHLVESGGGLVQAGGSLGLSCAASGHTFSNYAMGWFRQAPGKEREFVAAISWSGGSTLYADSVKGRFTISRDNGENTVYLQMNSLKPEDTAVYYCALDSTGVYGTGYVSSRKGRYEYWGQGTLVTVSS
notes: also called P29/P54; anti-CD117 VHH P29

Experiments:
human CD117 ectodomain = target: T1, human CD117 ectodomain (human, UniProt P10721 26-524, biotinylated (BirA co-expression) where captured on streptavidin biosensors); experiment: flow cytometry and Octet
T1 construct: extracellular domain; also called cKIT; full length AviTagged CD117 ectodomain; not shown: C-terminal AviTag or His tag

[1] = target: human CD117 on cells (SKMEL-3 cells, CD34+ HSC) (human) (UniProt P10721); experiment: flow cytometry, CD34+ HSC, bivalent Fc
[2] = target: human CD117 on cells (SKMEL-3 cells, CD34+ HSC) (human) (UniProt P10721); experiment: flow cytometry, skMEL-3 cells, bivalent Fc
[3] = target: T2, truncated CD117 ectodomain, Domains 1-3 (UniProt P10721 26-311, limits assumed, biotinylated); experiment: BLI, truncated ectodomain on SA biosensor
T2 construct: domain: Domains 1-3; not shown: AviTag
Experimental: (§1) To identify the approximate binding epitopes of the VHH antibodies, truncated ectodomains were expressed as fusion polypeptides with an AviTag. Additionally, biotin is added to the protein during expression to allow capture of the material onto Streptavidin-coated (SA) biosensors. SA biosensors (Sartorius) were incubated with one of the truncated ectodomains. Full length CD117 ectodomain was used as a control. […] Except for P29 and P37, all others bind Domains 1-2 and Domains 1-3. Except for P37, all others bind Domains 1-4.

[4] = target: T3, truncated CD117 ectodomain, Domain 1 (UniProt P10721 26-112, limits assumed, biotinylated); experiment: BLI, truncated ectodomain on SA biosensor
T3 construct: domain: Domain 1; not shown: AviTag
Experimental: as §1

[5] = target: T4, truncated CD117 ectodomain, Domains 1-2 (UniProt P10721 26-208, limits assumed, biotinylated); experiment: BLI, truncated ectodomain on SA biosensor
T4 construct: domain: Domains 1-2; not shown: AviTag
Experimental: as §1

[6] = target: T5, truncated CD117 ectodomain, Domains 1-4 (UniProt P10721 26-410, limits assumed, biotinylated); experiment: BLI, truncated ectodomain on SA biosensor
T5 construct: domain: Domains 1-4; not shown: AviTag
Experimental: as §1

Row | Binder | binding (human CD117 ectodomain) | binding [1] | binding [2] | binding [3] | binding [4] | binding [5] | binding [6]
1 | B1 | binds | binds | binds | – | – | – | –
2 | B2 | binds | – | – | – | – | – | –
3 | B3 | – | – | – | binds | binds | binds | binds
4 | B4 | – | – | – | binds | – | binds | binds
5 | B5 | – | – | – | binds | – | binds | binds
6 | B6 | – | – | – | binds | – | binds | binds
7 | B7 | – | – | – | binds | – | binds | binds
8 | B8 | – | – | – | binds | – | binds | binds
9 | B9 | – | – | – | binds | – | binds | binds
10 | B10 | – | – | – | – | – | – | binds
